Results reported in US5162305 (dated 1992).
*: point of attachment. Tos = Cc1ccc(S(=O)(=O)*)cc1; ClZ = O=C(OCc1ccccc1Cl)*; Cbz = O=C(OCc1ccccc1)*; Boc = CC(C)(C)OC(=O)*; OcHex = C1CCC(O*)CC1; OBn = c1ccc(CO*)cc1; Bn = c1ccc(C*)cc1; βAla = NCCC(=O)O

test: general procedure: solution-phase peptide synthesis; azide method (isoamyl nitrite/HCl-dioxane); OSu active esters; TFA-ONp (p-nitrop); conditions: coupling step

Substance | step yield
Boc-Gln-Glu(OcHex)-Leu-Gln-Lys(Cl-Z)-Leu-Gln-Thr(Bzl)-Pro-Arg(Tos)-Thr(Bz)-Asp(OcHex)-Val-Gly-Ala-Gly-Thr(Bzl)-Pro--NH2 | 93.2%
Boc-K(Cbz)LS(Bn)QE(OcHex)LGNLQT(Bn)PQT(Bn)D(OcHex)VGAGT(Bn)P-NH2 | 83.5%
Boc-K(Cbz)LS(Bn)QE(OcHex)K(ClZ)LQT(Bn)PQT(Bn)D(OcHex)VGAGT(Bn)P-NH2 | 89.6%
Boc-S(Bn)QE(OcHex)LGK(ClZ)LQT(Bn)PR(Tos)T(Bn)D(OcHex)VGAGT(Bn)P-NH2 | 92.4%
Boc-LHGLQT(Bn)PGT(Bn)D(OcHex)VGAGT(Bn)P-NH2 | 78.8%
Boc-QE(OcHex)LHK(ClZ)QT(Bn)PR(Tos)T(Bn)D(OcHex)VGAGT(Bn)P-NH2 | 101.2%
Boc-QT(Bn)PR(Tos)T(Bn)D(OEt)VGAGT(Bn)P-NH2 | 98.8%
Boc-Thr(Bzl)-D-Tyr(Cl2 -Bzl)-Pro-Arg(Tos)-Thr(Bzl)-Asp(OcHex)-Val-Gly-Ala-Gly-Thr(Bzl)-Pro--NH2 | 71.8%
Boc-QT(Bn)LPR(Tos)T(Bn)D(OcHex)VGAGT(Bn)P-NH2 | 86.5%
Boc-Lys(COCH3)-Leu-Ser(Bzl)-Gln-Glu(OcHex)-Leu-Asn-Lys(Cl-Z)-Leu-Gln- Thr(Bzl)-Pro-Gln-Thr(Bzl)-Asp(OcHex)-Val-Gly-Ala-Gly-Thr(Bzl)-Pro--NH2 | 91.2%
Boc-K(ClZ)QT(Bn)PQT(Bn)D(OBn)VGAGT(Bn)P-NH2 | 95.8%
Boc-ALS(Bn)QE(OcHex)LNK(ClZ)LQT(Bn)PQT(Bn)D(OcHex)VGAGT(Bn)P-NH2 | 96.7%
Boc-His(Tos)-Lys(Cl-Z)-Leu-Gln-Thr(Bzl)-Pro-Thr(Bzl)-Asp(OBzl)-Val-Gly-Ala-Gly-Thr(Bzl)-Pro--NH2 | 91.3%
{Boc-βAla}-Ser(Bn)-Asn-Leu-OEt | 68.6%
Boc-S(Bn)NLS(Bn)T(Bn)D-OEt | 71.4%
Boc-QE(OcHex)LK(ClZ)LQT(Bn)PR(Tos)T(Bn)D(OcHex)VGAGT(Bn)P-NH2 | 100.0%
Boc-Lys(Cl-Z)-Leu-Ser(Bzl)-Gln-Glu(OcHex)-Leu-His(Tos)-Lys(Cl-Z)-Leu-Gln-Thr(Bzl)-Pro-Thr(Bzl)-Asp(OBzl)-Val-Gly-Ala-Gly-Thr(Bzl)-Pro--NH2 | 86.4%
Boc-QT(Bn)PNT(Bn)D(OcHex)VGAGT(Bn)P-NH2 | 82.3%
Boc-T(Bn)PGT(Bn)D(OcHex)VGAGT(Bn)P-NH2 | 80.6%
Boc-QE(OcHex)LHGLQT(Bn)PR(Tos)T(Bn)D(OcHex)VGAGT(Bn)P-NH2 | 98.4%
Boc-Lys(Cl-Z)-Leu-Ser(Bzl)-Gln-Glu(OEt)-Leu-His-Lys(Cl-Z)-Leu-Gln-Thr(Bzl)-Pro-Arg(Tos)-Thr(Bzl)-Asp(OEt)-Val-Vly-Ala-Gly-Thr(Bzl)-Pro--NH2 | 87.7%
Boc-Gln-Glu(OcHex)-Leu-Asn-Lys(Cl-Z)-Leu-Gln-Thr(Bzl)-Tyr(Cl2-Bzl)-Pro-Gln-Thr(Bzl)-Asp(OcHex)-Val-Gly-Ala-Gly-Thr(Bzl)-Pro--NH2 | 89.8%
Boc-LHK(ClZ)LQT(Bn)LPR(Tos)T(Bn)D(OcHex)VGAGT(Bn)P-NH2 | 93.6%
Boc-GNLQT(Bn)PQT(Bn)D(OcHex)VGAGT(Bn)P-NH2 | 78.4%
Boc-Gln-Glu(OcHex)-Leu-His(Tos)-Lys(Cl-Z)-Leu-Gln-Thr(Bzl)-Tyr(Cl2-Bzl)-Pro-Gln-Thr(Bzl)-Asp(OcHex)-Val-Gly-Ala-Gly-Thr(Bzl)-Pro--NH2 | 88.6%

Substance | step yield
Boc-Lys(COCH3)-Leu-Ser(Bzl)-Gln-Glu(OBzl)-Leu-His-Lys(Cl-Z)-Leu-Gln-Thr(Bzl)-Tyr(Bzl)-Pro-Arg(Tos)-Thr(Bzl)-Asp(OBzl)-Val-Gly-Ala-Gly-Thr(Bzl)-Pro--NH2 | 63.9%
Boc-QE(OBn)LHGLQT(Bn)PGT(Bn)D(OcHex)VGAGT(Bn)P-NH2 | 75.8%
Boc-8-Ala-Ser(Bzl)-Asn-Leu-Ser(Bzl)-Thr(Bzl)-Asp--OEt | 90.4%
Boc-Gln-Thr(Bzl)-Pro-Gln-Thr(Bzl)-Asp(OBzl)-Val-Gly-Ala-Gly-Thr(Bzl)-Pro-- NH2 | 89.8%
Boc-Lys(Z)-Leu-Ser(Bzl)-Gln-Glu(OcHex)-Leu-Lys(Cl-Z)-Leu-Gln-Thr(Bzl)-Tyr(Cl2-Bzl)-Pro-Gln-Thr(Bzl)-Asp(OcHex)-Val-Gly-Ala-Gly-Thr(Bzl)-Pro--NH2 | 92.0%
Boc-D(OEt)VGAGT(Bn)P-NH2 | 86.2%
Boc-QE(OcHex)LGK(ClZ)LQT(Bn)Y(Bn)PR(Tos)T(Bn)D(OBn)VGAGT(Bn)P-NH2 | 97.8%
Boc-GLQT(Bn)PR(Tos)T(Bn)D(OcHex)VGAGT(Bn)P-NH2 | 95.0%
Boc-His(Tos)-Lys(Cl-Z)-Leu-Gln-Thr(Bzl)-Pro-Arg(Tos)-Thr(Bzl)-Asp(OcHex)-Val-Gly-Ala-Gly-Thr(Bzl)-Pro--NH2 | 99.7%
Boc-R(Tos)T(Bn)D(OcHex)VGAGT(Bn)P-NH2 | 89.7%
Boc-Thr(Bzl)-Tyr(Cl2 -Bzl)-Pro-Gln-Thr(Bzl)-Asp(OcHex)-Val-Gly-Ala-Gly-Thr(Bzl)-Pro--NH2 | 96.2%
Boc-Ser(Bzl)-Asn-Leu azide coupling product | 60.4%
Boc-K(Cbz)LS(Bn)QE(OcHex)LQK(ClZ)LQT(Bn)PNT(Bn)D(OcHex)VGAGT(Bn)P-NH2 | 87.5%
Boc-GK(ClZ)LQT(Bn)PNT(Bn)D(OcHex)VGAGT(Bn)P-NH2 | 85.7%
Boc-LHLQT(Bn)PT(Bn)D(OcHex)VGAGT(Bn)P-NH2 | 91.9%
Boc-His(Tos)-Lys(Cl-Z)-Leu-Gln-Thr(Bzl)-Tyr(Cl2-Bzl)-Pro-Gln-Thr(Bzl)-Asp(OcHex)-Val-Gly-Ala-Gly-Thr(Bzl)-Pro--NH2 | 89.3%
Boc-QE(OcHex)LLK(ClZ)LQT(Bn)PQT(Bn)D(OcHex)VGAGT(Bn)P-NH2 | 99.8%
Boc-Glu(OcHex)-Leu-His(Tos)-Lys(Cl-Z)-Leu-Gln-Thr(Bzl)-Pro-Arg(Tos)-Thr(Bzl)-Asp(OcHex)-Val-Gly-Ala-Gly-Thr(Bzl)-Pro--NH2 | 95.7%
Boc-Ser(Bzl)-Asn-Leu-Ser(Bzl)-Thr(Bzl)-Cmc--OCH3 | 57.7%
Boc-E(OcHex)LHK(ClZ)QT(Bn)PR(Tos)T(Bn)D(OcHex)VGAGT(Bn)P-NH2 | 92.2%
Boc-T(Bn)PNT(Bn)D(OcHex)VGAGT(Bn)P-NH2 | 87.5%
Boc-Asn-Lys(Cl-Z)-Leu-Gln-Thr(Bzl)-Tyr(Cl2 -Bzl)-Pro-Gln-Thr(Bzl)-Asp(OcHex)-Val-Gly-Ala-Gly-Thr(Bzl)-Pro--NH2 | 86.8%
Boc-Thr(Bzl)-Tyr(Cl2 -Bzl)-Pro-Arg(Tos)-Thr(Bzl)-Asp(OBzl)-Val-Gly-Ala-Gly-Thr(Bzl)-Pro--NH2 | 94.9%
Boc-E(OcHex)LHLQT(Bn)PT(Bn)D(OcHex)VGAGT(Bn)P-NH2 | 95.0%
Boc-K(Cbz)LS(Bn)QE(OcHex)LGK(ClZ)LQT(Bn)PNT(Bn)D(OcHex)VGAGT(Bn)P-NH2 | 87.6%

Substance | step yield
Boc-Gln-Thr(Bzl)-D-Tyr(Cl2 -Bzl)-Pro-Arg(Tos)-Thr(Bzl)-Asp(OcHex)-Val-Gly-Ala-Gly-Thr(Bzl)-Pro--NH2 | 92.8%
Boc-AK(ClZ)LQT(Bn)PR(Tos)T(Bn)D(OcHex)VGAGT(Bn)P-NH2 | 97.2%
Boc-K(Cbz)LS(Bn)QE(OcHex)LLK(ClZ)LQT(Bn)PR(Tos)T(Bn)D(OcHex)VGAGT(Bn)P-NH2 | 92.1%
Boc-Leu-His-Lys(Cl Z)-Gln-Thr(Bzl)-Pro-Arg(Tos)-Thr(Bzl)-Asp(OcHex)-Val-Gly-Ala-Gly-Thr(Bzl)- Pro--NH2 | 102.0%
Boc-Ser(Bzl)-Asn-Leu-Ser(Bzl)-Thr(Bzl)-4-CPA--OCH3.1/2H2 O | 76.1%
Boc-QT(Bn)PGT(Bn)D(OcHex)VGAGT(Bn)P-NH2 | 83.1%
Boc-K(Cbz)LS(Bn)QE(OBn)LHK(Bn)LQT(Bn)Y(Bn)PR(Tos)T(Bn)D(OBn)VGAGT(Bn)P-NH2 | 94.7%
Boc-LQT(Bn)PT(Bn)D(OcHex)VGAGT(Bn)P-NH2 | 91.6%
Boc-Leu-His-Lys(Bz)-Leu-Gln-Thr(Bzl)-Tyr-(Bzl)-Pro-Arg(Tos)-Thr(Bzl)-Asp(OBzl)-Val-Gly-Ala-Gly-Thr(Bzl)-Pro--NH2 | 92.0%
Boc-T(Bn)PQT(Bn)D(OcHex)VGAGT(Bn)P-NH2 | 89.9%
Boc-LS(Bn)QE(OcHex)LHLQT(Bn)PT(Bn)D(OcHex)VGAGT(Bn)P-NH2 | 90.9%
Boc-S(Bn)NLS(Bn)T(Bn)E-OBn | 80.5%
Boc-QE(OcHex)LAK(ClZ)LQT(Bn)PR(Tos)T(Bn)D(OcHex)VGAGT(Bn)P-NH2 | 95.9%
Boc-K(Cbz)LS(Bn)QE(OcHex)LHK(ClZ)QT(Bn)PR(Tos)T(Bn)D(OcHex)VGAGT(Bn)P-NH2 | 94.1%
{Boc-βAla}-S(Bn)NLS(Bn)T(Bn)E-OMe | 63.7%
Boc-Leu-His(Tos)-Lys(Cl-Z)-Leu-Gln-Thr(Bzl)-D-Tyr(Cl2 -Bzl)-Pro-Arg(Tos)-Thr(Bzl)-Asp(OcHex)-Val-Gly-Ala-Gly-Thr(Bzl)-Pro--NH2 | 92.4%
Boc-QE(OcHex)LGK(ClZ)LQT(Bn)PNT(Bn)D(OcHex)VGAT(Bn)P-NH2 | 87.6%
Boc-K(ClZ)LQT(Bn)PQT(Bn)D(OBn)VGAGT(Bn)P-NH2 | 95.3%
Boc-K(Cbz)LS(Bn)QE(OcHex)LAK(ClZ)LQT(Bn)PR(Tos)T(Bn)D(OcHex)VGAGT(Bn)P-NH2 | 98.3%
Boc-K(ClZ)LQT(Bn)PGT(Bn)D(OcHex)VGAGT(Bn)P-NH2 | 86.1%
Boc-K(Cbz)LS(Bn)QE(OcHex)LFK(ClZ)LQT(Bn)PR(Tos)T(Bn)D(OcHex)VGAGT(Bn)P-NH2 | 99.0%
Boc-T(Bn)D(OcHex)VGAGT(Bn)P-NH2 | 84.5%
Boc-GLS(Bn)QE(OcHex)LHGLQT(Bn)PR(Tos)T(Bn)D(OcHex)VGAGT(Bn)P-NH2 | 97.9%
Boc-QT(Bn)PT(Bn)D(OBn)VGAGT(Bn)P-NH2 | 93.5%
Boc-S(Bn)QE(OcHex)LNK(ClZ)LQT(Bn)PR(Tos)T(Bn)D(OcHex)VGAGT(Bn)P-NH2 | 95.0%

same assay, conditions: late stage modification step

Substance | step yield
Boc-β-Ala-β-Ala-Asn-Leu-N2 H3 | 87.9%
